# Literature values as cited in US11506670B2, “Method of genome-wide direct identification of electrophile-sensing targets” (Cornell University, priority 2018, dated 2022).
# Where two headings read alike, the source gives them in different places.
# Tested on: HaloTag
# Settings: cited from earlier work
structure (smiles),measurement,setting,value
"CCCCCCCCCCCCC/C=C/C=O [2-HD, 2-trans-hexadecenal]",liberation of LDE after photo-uncaging,in the presence of 1% SDS,efficient liberation
same,liberation of LDE after photo-uncaging,without SDS,no liberation was observed
